Results taken from patent US10434135B2, “Pharmaceutical composition for preventing or treating arthritis” (Samsung Life Public Welfare Foundation, priority 2015, dated 2019).
Part of at least one peptide drawing is inferred or uncertain, most often the ends. Ends that are not written are not given here.

What was measured:
CD90 = test: Immunofluorescent staining of mesenchymal stem cell markers (stem cell mobilization); assay type: in vivo, rat; settings: relative to control group; FIG. 8
CD105 = test: as above; assay type: in vivo, rat; settings: relative to control group; FIG. 8

KLDLKLDLKLDLRPKPQQFFGLM [KLD12-SP]
expression of CD90 (CD90): at least twice that of the control group
expression of CD105 (CD105): at least twice that of the control group
